# Experimental data from publication PMC12040169 (PLOS Biology, 2025).
# The list shows a part of the results.
# Test system: T1, CTL2-GFP (C. trachomatis L2/434/Bu, GFP-expressing)
# T1 construct: L2/434/Bu, GFP-expressing
# Parameters: species or system HeLa; Intracellular C. trachomatis growth in HeLa cells, bulk GFP fluorescence relative to DMSO
# Conditions: bulk GFP, single well; 28.5 h, 10 µM; inhibitor
row,SMILES,% of control remaining
1,CC1OC(n2ccc(=S)[nH]c2=O)C(O)C1O (centres unmarked) [CBK012231],139.707%
2,CC(NC(=O)c1ncoc1-c1ccc(F)cc1)c1ccccn1 (centres unmarked) [CBK283846],110.298%
3,CC(C)(C)C(=O)N1CCC(c2[nH]ncc2-c2ccncc2)CC1 [CBK284211],132.335%
4,c1ccc2c(-c3cn4ccnc4c(NC4CCOCC4)n3)cccc2c1 [CBK038047],175.233%
5,NC(=O)c1cnn(-c2cc(Oc3ccccc3)ncn2)c1N [CBK098664],96.633%
6,Cc1ccc(-c2nn(-c3cc(N4CCN(CCO)CC4)ccc3[N+](=O)[O-])c(=O)c3ccccc23)cc1C [CBK263713],103.087%
7,CC(c1ccccc1)n1c(S)nnc1-c1cc(C(C)(C)C)n[nH]1 (centres unmarked) [CBK268954],141.964%
8,OC1(c2ccc(F)cc2)CCC2CN(CC3CC3)CC21 (centres unmarked) [CBK283105],113.695%
9,Cc1ccc(F)c(OC2(C(=O)O)CCN(Cc3ncc[nH]3)CC2)c1 [CBK307062],97.5137%
10,Cc1ccc(C(=O)N2CCN(Cc3cc(=O)n4ccsc4n3)CC2)cn1 [CBK305700],115.942%
11,NC(=O)c1cccnc1N1CCNCC1 [CBK025310C],120.816%
12,COC(=O)Nc1cc2sccc2nc1C(F)(F)F [CBK019229],154.312%
13,CCOC(=O)c1cnc(SC)nc1NCCc1c[nH]c2cc(F)ccc12 [CBK092315],106.416%
14,Cc1ccc(O)c(CN[C@@H]2CCC(=O)N[C@H]2c2cc(F)cc(F)c2)c1 [CBK283132],131.597%
15,O=Cc1ccc(-c2nccnc2NS(=O)(=O)c2ccccc2)cc1 [CBK073845],136.399%
16,CC(=O)c1cc2c(N)c(/C(N)=N/C#N)sc2nc1C [CBK021202],106.182%
17,CC1(C)SC(c2ccc(F)cc2)N[C@H]1C(=O)O (some centres unmarked) [CBK025917],119.163%
18,CCc1ccc2c(c1)C(=O)CC1(CCN(C(=O)c3cc(OC)c(C)c(OC)c3)CC1)O2 [CBK168098],82.7371%
19,COc1ccccc1NS(=O)(=O)c1ccc2c(c1)C1C=CCC1C(c1ccc(C(=O)O)cc1)N2 (centres unmarked) [CBK268903],107.532%
20,COc1ccc(NC(=O)C(=O)N/N=C/c2ccc(C(=O)O)cc2)cc1 [CBK262255],128.933%
21,O=C(O)c1cccc(-c2ccc(/C=N/Nc3ccc([N+](=O)[O-])cn3)o2)c1 [CBK263196],109.619%
22,NC(=O)c1cccc(-c2nc(-c3cc4ccccc4o3)cnc2N)c1 [CBK063996],147.628%
23,COc1ccccc1Oc1ccc([N+](=O)[O-])cc1F [CBK002850],110.386%
24,Cc1nn(C)c(Cl)c1S(=O)(=O)NCCc1c[nH]c2ccccc12 [CBK067310],104.635%
25,COc1ccc(CCC(=O)NC[C@H]2CC[C@H](c3cc(C(N)=O)c4ccccc4n3)CC2)cc1 [CBK285920],133.403%
26,CCc1nn(CC(=O)N2CCCCC2C)c(=O)c2cc3occc3n12 (centres unmarked) [CBK283676],186.029%

# Exported with tabs: part of the list above
row	SMILES	% of control remaining
5	NC(=O)c1cnn(-c2cc(Oc3ccccc3)ncn2)c1N [CBK098664]	96.633%
13	CCOC(=O)c1cnc(SC)nc1NCCc1c[nH]c2cc(F)ccc12 [CBK092315]	106.416%
14	Cc1ccc(O)c(CN[C@@H]2CCC(=O)N[C@H]2c2cc(F)cc(F)c2)c1 [CBK283132]	131.597%
20	COc1ccc(NC(=O)C(=O)N/N=C/c2ccc(C(=O)O)cc2)cc1 [CBK262255]	128.933%
23	COc1ccccc1Oc1ccc([N+](=O)[O-])cc1F [CBK002850]	110.386%

# Continuation.

row,SMILES,% of control remaining
1,COCCc1nc(C2CCC2)n(Cc2ccccc2C)n1 [CBK307238],139.542%
2,CN(CC(=O)O)C(=O)c1ccc(S(=O)(=O)N2CCCC2)cc1 [CBK265724],92.8744%
3,O=C(O)CCC(=O)N1C[C@@H]2C[C@H](C1)c1ccc(-c3ccc4ccccc4c3)c(=O)n1C2 [CBK289179],125.108%
4,C[C@@H](Nc1nc(-c2cc(C(F)(F)F)cc(C(F)(F)F)c2)cnc1N)c1ccccc1 [CBK063720],52.9852%
5,CCN1CC(C(=O)N2CCN(C(=O)c3ccccc3F)CC2)CC1=O (centres unmarked) [CBK282937],103.609%
6,COc1ccc(CN(C)c2c(C)nc3c(OCCc4cccc(OC)c4)cccn23)cc1 [CBK147467],150.466%
7,COc1ccc(S(=O)(=O)NC(C)C(=O)NCc2ccccn2)cc1Cl (centres unmarked) [CBK269275],117.889%
8,Cc1nc2sccn2c1CN1CCC(O)(c2ccc(F)cc2)CC1 [CBK282792],98.5579%
9,Cc1nc(SCC(=O)c2cc(Cl)ccc2Cl)c2ccccc2n1 [CBK297543],171.078%
10,COCCCNC(=O)CN1CCCCC1Cn1nc(C)cc1C (centres unmarked) [CBK304009],94.6002%
11,O=C(Nc1cccc(S(=O)(=O)N2CCOCC2)c1)c1cc(-c2cccnc2)nc2ccc(Cl)cc12 [CBK267720],110.083%
12,CCN(CCO)c1ccc(Nc2cc(-c3cccc([N+](=O)[O-])c3)ncn2)cc1 [CBK091002],171.608%
13,CC(C)(C)NC(=O)[C@@H]1CNC[C@]12Cc1ccccc1C(=O)N2 [CBK285294],100.669%
14,O=S(=O)(Nc1cccc(-c2cnco2)c1)c1ccc(-c2cc(C(F)(F)F)on2)s1 [CBK067124],97.1801%
15,Cc1cc2c(cc1C)NC(CC(=O)Nc1cccc(Br)c1)C(=O)N2 (centres unmarked) [CBK269548],103.598%
16,O=C(O)c1cc(S(=O)(=O)NCCCN2CCOCC2)ccc1Cl [CBK299804],149.005%
17,O=C(O)c1ccc(CN2CC[C@H](c3nc4ccccc4o3)C2)cc1 [CBK289387],110.885%
18,O=C(CC1OCCc2ccsc21)N1CCCC(n2cccn2)C1 (centres unmarked) [CBK305154],102.175%
19,COc1ccc(OC)c(NC(=O)c2ccccc2C(=O)O)c1 [CBK287082],135.188%
20,Clc1ccc(CNC2CCCCC2NCc2ccc(Cl)nc2)cn1 (centres unmarked) [CBK025983],126.987%
21,COCc1cccc(-c2ccc(C(=O)N(C)CCN(C)C)c(N(C)C)n2)c1 [CBK106091],105.311%
22,CC(=O)c1c(C)nn(C(C)CC(=O)Nc2ccc(Cl)c(Cl)c2)c1C (centres unmarked) [CBK270021],143.122%
23,CCc1nc2ccc(C(=O)NCCN3CCCC3)cn2c1N(C)C(=O)c1ccncc1 [CBK146655],171.793%
24,Cc1ccc(Cl)c(N2CCN(CCCn3c(=S)[nH]c4ccccc4c3=O)CC2)c1 [CBK268011],124.337%
25,COc1cncc(-c2cnc(N)c(N[C@@H](CO)C(C)C)n2)c1 [CBK063734],81.6981%
26,COc1ccc(CN2/C(=N/c3ccccc3)S[C@H]3[C@@H]2[C@@H](O)[C@H](O)C[C@@H]3C(N)=O)cc1 [CBK288941],147.266%

row,SMILES,% of control remaining
1,Fc1ccccc1CN1CCC(Oc2nccnc2OCc2cccnc2)CC1 [CBK083157T],117.277%
2,O=C(O)c1ccc(NC(=O)c2nccnc2C(=O)O)cc1 [CBK260916],117.153%
3,COCC1CCCN(Cc2ccc(Br)cc2)C1 (centres unmarked) [CBK304624],115.244%
4,CC(C)(C)c1cc(CC2(NCc3ccco3)COC2)no1 [CBK289642],160.19%
5,CS(=O)(=O)Nc1nccnc1OC1CCN(CCc2ccccn2)CC1 [CBK084286],91.4057%
6,COC(=O)c1cccc(CCC2CC(=O)C=C(O)C2)c1 (centres unmarked) [CBK012720],112.255%
7,CCCNC(=O)CN1C(=O)N2CCCN=C2c2ccc(Cl)cc21 [CBK284389],117.968%
8,Cc1ccc(C(=O)NC2CCN(C(=O)Nc3cc(Cl)ccc3F)CC2)s1 [CBK305243],110.569%
9,Nc1nnc(SCC(=O)NC23CC4CC(CC(C4)C2)C3)s1 [CBK267417],136.532%
10,O=C(Cc1ccccn1)N1CCC(c2cccc(Cc3ccc(C(F)(F)F)cc3)n2)CC1 [CBK286224],104.5%
11,O=C1CC2(CCN(C(=O)C3CCCC3)CC2)Oc2ccc(F)cc21 [CBK283686],151.168%
12,CCC1CCCCN1C(=O)c1cc(C)nc(Cl)c1 (centres unmarked) [CBK076748],102.267%
13,Cc1cc(C)n(CCCNC(=O)c2ncoc2-c2ccc(F)cc2)n1 [CBK282357],128.243%
14,CC(=O)N1CCN(c2ccc(OCCO)cc2)CC1 [CBK001978],154.778%
15,Cc1cc(OCc2nnc(SCC(=O)Nc3ccc(I)cc3)n2C)ccc1Cl [CBK268600],124.947%
16,COC(=O)CN1CCCC[C@H]2CN(C(=O)Cc3ccsc3)C[C@H]21 [CBK285509],109.001%
17,Cc1nc(CN2CCCC3(CCN(C(=O)c4cc(F)c(F)cc4F)C3)C2)cs1 (centres unmarked) [CBK132026],116.292%
18,CC(C)(N)CNC(=O)c1cnc2cc(Cl)ccc2c1O [CBK107360],153.404%
19,S=c1nccc(N2CCC(Cc3ccccc3)CC2)[nH]1 [CBK288361],95.908%
20,C=CCNC(=O)N[C@H]1CCN2C(=O)c3ccc(Cl)cc3NC(=O)[C@@H]2C1 [CBK289569],100.212%
21,COc1ccc([C@]23CN(C)C[C@H]2CCN(C(=O)c2cccc(Br)c2)C3)cc1OC [CBK075111T],106.637%
22,CCN1C(=O)C2(CC(=O)N(CC(=O)OC)C2=O)c2cc(Cl)ccc21 (centres unmarked) [CBK075234],182.62%
23,CN(C(=O)COC(=O)c1cc(-c2ccco2)nc2ccccc12)C1(C#N)CCCCC1 [CBK295591],134.538%
24,Cc1ccc(CC(=O)N2CCC(Cc3ccccc3-c3ccccc3)(C(N)=O)CC2)cc1 [CBK285740],104.053%
25,COc1ccc(/C(N)=N/OC(=O)C(C)Oc2ccc(C(C)(C)C)cc2)cc1OC (centres unmarked) [CBK267378],107.345%
